Test results: paper PMC2747018
No constants are given. Whether binding was seen depends on the method and setting. Binding seen in cells or lysates may run through a third protein. Here binding means that the protein was enriched with, or labelled near, the bait; the list need not be complete. A no says only that the protein was not detected with the bait.

Biological target: U1-A protein of the native human U1 snRNP (human (endogenous in HeLa)), P09012
Assay: affinity purification with mass spectrometry; U1 snRNP immunoprecipitated from HeLa nuclear extract with an affinity-purified antibody against U1-A aa 1-14 on Protein A Sepharose (IP150: 20 mM Hepes pH 7.9, 150 mM NaCl, 1.5 mM MgCl2, 0.5 mM DTT, 3 h, 4°C), eluted with the antigenic peptide, 5-20% glycerol gradient; proteins identified by proteomic analysis and LC-MS of the denatured complex; the complex holds U1 …
Settings: remark: other sources report otherwise

binding: no binding
B1: U2 snRNP-B'', P08579 1-225 (protein)
chain: MDIRPNHTIYINNMNDKIKKEELKRSLYALFSQFGHVVDIVALKTMKMRGQAFVIFKELGSSTNALRQLQGFPFYGKPMRIQYAKTDSDIISKMRGTFADKEKKKEKKKAKTVEQTATTTNKKPGQGTPNSANTQGNSTPNPQVPDYPPNYILFLNNLPEETNEMMLSMLFNQFPGFKEVRLVPGRHDIAFVEFENDGQAGAARDALQGFKITPSHAMKITYAKK
